Experimental data: PubChem BioAssay AID504648 (National Center for Advancing Translational Sciences (NCATS), 2011)
Out of some 390,000 compounds screened, about 610 (0.16%) were called active. The inconclusive results got no clear call from the source; some entries with a clear call stand among them for comparison. Calls come from the whole dose curve; as a rule, active = well fitted inhibition curve with a large enough effect; inconclusive = small, poorly fitted or top-dose-only effect, or effect the other way, or another doubt; inactive = no such curve, though single readings can be large or run the other way. A potency beside an inconclusive call is a rough fit, not a confirmed value.

assay: Nrf2 qHTS screen for inhibitors: counterscreen for cytotoxicity; conditions: A549 ARE-Fluc cells, CellTiter-Fluor viability, 18-24 h; series mostly up to 46 µM
In short: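 A549 ARE_Fluc cells in 5% FBS OPTI-MEM were exposed to compounds in concentration-response for 18-24 h at 37 deg C. Viability was read by CellTiter-Fluor fluorescence (Ex 405/Em 525) after 30 min, before the luciferase read.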
Potency is the fitted concentration of half-maximal effect.

| SMILES | Potency |
| --- | --- |
| COc1ccc(/C(C)=N/NC(=O)CNC(=O)CCc2ccccc2)c(OC)c1 | inconclusive: 16.4 µM [falling, partial curve, poor fit] |
| O=C(CN1CCOCC1)Nc1nc(-c2ccc(Cl)cc2)cs1 | inconclusive: 3.26 µM [activator, partial curve, poor fit] |
| CCOC(=O)c1ccc(NC(=O)C2COc3ccccc3O2)cc1 (stereo not drawn) | inactive |
| COc1ccc(C(=O)N(Cc2ccccc2)c2cccc(C)c2)cc1S(=O)(=O)N1CCOCC1 | inconclusive: 32.6 µM [falling, partial curve, poor fit] |
| O=[N+]([O-])c1cccc2ccc(/C=C/c3ccc(F)cc3)nc12 | inconclusive: 16.4 µM [falling, single point] |
| CC(CCC(C)C(C)(C)C)[C@@H]1CC[C@H]2C3C[C@H](OS(O)(=S)=S)[C@H]4C[C@H](OS(O)(=S)=S)[C@@H](OS(O)(=S)=S)C[C@]4(C)[C@H]3CC[C@]12C (stereo partly drawn) (tested in a mixture with another compound) | inconclusive: 18.4 µM [falling, single point] |
| COc1cc(/C=N/Nc2nc3c(c(=O)n(C)c(=O)n3C)n2Cc2ccccc2)ccc1OC(=O)c1ccco1 | inconclusive: 25.9 µM [falling, single point] |
| O=C(/C=C/c1ccco1)Nc1cccc(C(=O)Nc2ccccc2C(=O)O)c1 | inactive |
| Cc1ccc(CCNC(=O)c2cc(-c3ccncc3)nc3ccccc23)cc1 | inconclusive: 10.3 µM [falling, partial curve, poor fit] |
| COc1cccc(CN(C)C(=O)c2ccc(OCC(=O)Nc3cccc(C(F)(F)F)c3)c(OC)c2)c1 | inconclusive: 10.3 µM [falling, partial curve] |
| COC(=O)c1ccc2c(=O)n(CCCCCC(=O)NCc3ccccc3)c(=O)[nH]c2c1 | inconclusive: 3.66 µM [activator, partial curve, poor fit] |
| CSc1ccc(CCNC(=O)CCc2c(C)nc3c(-c4ccccc4)c(C)nn3c2C)cc1 | inconclusive: 29.1 µM [falling, single point] |
| O=C(c1cnc2cc(-c3ccccc3)nn2c1)c1cc([N+](=O)[O-])ccc1O | inconclusive: 23.1 µM [falling, partial curve, poor fit] |
| O=C(c1ccc(Cl)c(Cl)c1)N1CCC(=O)N(C(COCc2ccccc2)Cc2ccccc2)CC1 (stereo not drawn) | inconclusive: 32.6 µM [falling, partial curve, poor fit] |
| CCN(CC)CCCNc1ccc2ncn3c4ccc(O)cc4c(=O)c1c23 | inconclusive: 11.6 µM [falling, partial curve] |
| CC1=NN(c2ccc([N+](=O)[O-])cc2)C(=O)C1 | inconclusive: 6.51 µM [falling, partial curve] |
| COc1ccc2c(c1)C1NC(=S)N[C@@](C)(O2)C1C(=O)Nc1ccccc1 (stereo partly drawn) | inactive |
| CS(=O)(=O)c1ccc2nc(NC(=O)Nc3cccc(Cl)c3)sc2c1 | inconclusive: 6.51 µM [falling, partial curve] |
| Cc1nnc(NS(=O)(=O)c2ccc(N=Nc3ccc(N)nc3N)cc2)s1 | inconclusive: 23.1 µM [falling, single point] |
| N=c1c(C(=O)NC2CCCC2)cc2c(=O)n3ccccc3nc2n1CC1CCCO1 (stereo not drawn) | inconclusive: 14.6 µM [activator, partial curve] |
| CN(C)c1ncc(S(=O)(=O)c2ccccc2)c(-c2ccccc2Cl)n1 | inconclusive: 16.4 µM [activator, partial curve, poor fit] |

Random excerpt: 4 compounds from above, in no set order.

| SMILES | Potency |
| --- | --- |
| COc1ccc(C(=O)N(Cc2ccccc2)c2cccc(C)c2)cc1S(=O)(=O)N1CCOCC1 | inconclusive: 32.6 µM [falling, partial curve, poor fit] |
| COc1ccc2c(c1)C1NC(=S)N[C@@](C)(O2)C1C(=O)Nc1ccccc1 (stereo partly drawn) | inactive |
| O=C(/C=C/c1ccco1)Nc1cccc(C(=O)Nc2ccccc2C(=O)O)c1 | inactive |
| CN(C)c1ncc(S(=O)(=O)c2ccccc2)c(-c2ccccc2Cl)n1 | inconclusive: 16.4 µM [activator, partial curve, poor fit] |

Further results follow.

| SMILES | Potency |
| --- | --- |
| CCOc1ccc(C(=O)Nc2nnc(S(=O)(=O)N(CC)c3ccccc3C)s2)cc1 | inactive |
| CCn1ccnc1CNCc1cn(-c2cc(C)ccc2C)nc1-c1ccccc1 | inconclusive: 16.4 µM [falling, single point] |
| CCCCNC(=S)N/N=C1\CCCCc2ccccc21 | inconclusive: 18.4 µM [activator, partial curve, poor fit] |
| CCc1[nH]nc(C(=O)N2CCCC(C(=O)c3cccc(OC(C)C)c3)C2)c1C (stereo not drawn) | inconclusive: 13 µM [falling, partial curve] |
| Cc1cc(C)c2c(=O)c3c(oc2c1)C(=O)N(Cc1ccc(F)cc1)C3c1cccc(O)c1 (stereo not drawn) | inconclusive: 29.1 µM [falling, partial curve, poor fit] |
| COc1cc(CN(C)CC2CCCN(CCc3ccccc3F)C2)cc(Cl)c1OC (stereo not drawn) | inconclusive: 29.1 µM [falling, single point] |
| C#CCOCCOCCOCCNc1nc(N2CCN(C(=O)CCCCCCCCCCNC(=O)[C@@H](CCC(=O)O)n3cc(CCCCCN)nn3)CC2)nc(N2CCN(C(=O)CCCCCCCCCCNC(=O)[C@H]([C@@H](C)CC)n3cc(CCCCCN)nn3)CC2)n1 | inconclusive: 29.1 µM [falling, single point] |
| Cc1cc(OCCCCCNCCO)cc(C)c1Cl | inactive |
| Cc1ccc(CNC(=O)CN(c2ccc(C(C)C)cc2)S(=O)(=O)c2c(C)n[nH]c2C)cc1 | inconclusive: 29.1 µM [falling, partial curve, poor fit] |
| CCn1c(=NC(=O)CS(=O)(=O)c2ccc(F)cc2)sc2cccc(OC)c21 | inactive |
| Cc1cccc(N(CC(=O)NCCSCc2ccc(Cl)cc2)S(C)(=O)=O)c1C | inactive |
| COc1ccc(CCNc2ncnc3c2c(C)c(C)n3CCCN(C)C)cc1OC | inactive |
| CCN(CC)C(=O)Cn1cc(SCC(=O)Nc2ccccc2F)c2ccccc21 | inactive |
| Cc1cc(OCC(=O)OCC(=O)N(C)C2CCS(=O)(=O)C2)ccc1Cl (stereo not drawn) | inactive |
| Cn1cc(CN2CCCC(C(=O)Nc3cccc(-c4cc5ccccc5[nH]4)c3)C2)cn1 (stereo not drawn) | inconclusive: 23.1 µM [falling, single point] |
| Nc1cccc2c1C(=O)N(C(=O)c1ccc(Cl)c(S(=O)(=O)N3CCCCCC3)c1)C2=O | inconclusive: 11.6 µM [activator, single point] |
| Cc1ccc(NC(=O)c2cccs2)cc1NC(=O)c1ccc(F)cc1 | inconclusive: 14.6 µM [falling, partial curve, poor fit] |
| CCOc1ccc(CC(=O)NCCc2csc(-c3ccc(C(F)(F)F)cc3)n2)cc1 | inactive |
| O=[N+]([O-])c1ccc(N=Cc2c(O)ccc3ccccc23)cc1 | inconclusive: 16.4 µM [falling, partial curve, poor fit] |
| O=Cc1s/c(=N\S(=O)(=O)c2ccccc2)n(CCCCl)c1Cl | inconclusive: 29.1 µM [falling, single point] |
| O=C(O)c1ccc(N/N=C/c2ccc(-c3ccc(Br)cc3)o2)cc1 | inconclusive: 18.4 µM [falling, partial curve, poor fit] |

| SMILES | Potency |
| --- | --- |
| CC1(C)COC(/C=C/c2ccc([N+](=O)[O-])cc2)=N1 | inconclusive: 18.4 µM [falling, partial curve, poor fit] |
| CCc1nc(SCc2ccc(Cl)cc2)n[nH]1 | inactive |
| Nc1ncnc2nc(SCCN3CCCCC3)[nH]c12 | inconclusive: 32.6 µM [activator, partial curve, poor fit] |
| O=C(O)/C=C/C(=O)Nc1ccc2c(c1)C(=O)c1ccccc1C2=O | inconclusive: 2.59 µM [falling, partial curve, poor fit] |
| N/C(=N\OC(=O)c1ccc(Cl)cc1)c1nonc1N | inconclusive: 0.651 µM [falling, single point] |
| O=C(O)CCn1cc(/C=C2\SC(=S)NC2=O)c(-c2ccccc2)n1 | inconclusive: 23.1 µM [falling, partial curve] |
| O=C(c1ccc(Cn2c(=O)[nH]c3ccccc3c2=O)cc1)N1CCN(c2ccc(Cl)cc2)CC1 | inconclusive: 29.1 µM [falling, single point] |
| Cc1ccc(-n2nc3ccc(NC(=O)COc4ccccc4C)cc3n2)cc1 | inactive |
| Cc1ccc(C)c(N2CCN(C(=O)C3CCCN(S(=O)(=O)c4c(C)noc4C)C3)CC2)c1 (stereo not drawn) | inactive |
| COc1ccccc1-c1oc2ccccc2c1C#CC1(N)CCCCC1 | inactive |
| O=C1c2cc([N+](=O)[O-])cc3cc([N+](=O)[O-])cc(c23)C(=O)N1c1ccccn1 | inconclusive: 18.4 µM [falling, single point] |
| Cn1cnc([N+](=O)[O-])c1Oc1cccc2ccccc12 | inactive |
| CC(=O)Nc1ccc(NC(=O)CSc2ccc3nnc(CCNS(=O)(=O)c4ccc(C)cc4)n3n2)cc1 | inactive |
| CSc1ccc(CCNC(=O)c2cc(C)nc3c2c(C)nn3-c2ccccc2)cc1 | inconclusive: 29.1 µM [falling, partial curve, poor fit] |
| COc1ccc2oc(C(=O)OCC(=O)N(Cc3ccccc3)C(C)(C)C)c(C)c2c1 | inactive |
| COc1ccc(C2C(C(C)=O)=C(O)C(=O)N2c2cccnc2)c(OC)c1 (stereo not drawn) | inconclusive: 20.6 µM [falling, single point] |
| Cc1cc(Nc2nc3ccccc3[nH]c2=O)n(-c2ccccc2)n1 | inactive |
| CCc1nnc(NC(=O)c2cc(S(=O)(=O)N(CC)CC)ccc2Cl)s1 | inactive |
| CCCc1cc(-c2[nH]ncc2-c2ccc(C(=O)OCC)o2)c(O)cc1O | inconclusive: 29.1 µM [falling, single point] |
| Cc1ccc(Nc2nc(CSc3nnnn3C)cs2)cc1 | inconclusive: 16.4 µM [activator, partial curve, poor fit] |
| Cc1nn(Cc2ccccc2)c(Cl)c1/C=N/NC(=O)c1cccnc1 | inconclusive: 14.6 µM [falling, partial curve, poor fit] |
